Data taken from US8178579B2, “Dioxanes and uses thereof” (President and Fellows of Harvard College, priority 2001, dated 2012).
For at least one compound, name, drawing or mass did not settle the structure.

Tested on: α-tubulin deacetylation
Experiment: acetylated α-tubulin in cells (AcTubulin cytoblot, immunofluorescence, Western blot)
Type: cell-based, human
Conditions: A549 cells, 10 mM, 24 h
Protocol: A549 cells were seeded at a density of 4,000 cells/50 μl in DMEM+ in white tissue culture-treated 384-well plates (Nalge Nunc) using a Multidrop 384 liquid dispenser (Labsystems). Library small molecules were pinned twice (100-150 nl/pin) from ˜1 mM stock solutions (DMSO) and incubated for 18 hours. For the ITSA1+AcTubulin assay, ITSA1 (50 μM) was added four hours after pin-transfer of library molecules. Media was aspirated with a 16-channel wand. […] Plates were read on an Analyst plate reader (LJL Biosystems) with an integration time of 0.1 seconds.
1,3-dioxanes from single polystyrene macrobeads were prepared as 1-2 mM stock solutions in DMSO as described [Hubbert, C., Guardiola, A., Shao, R., Kawaguchi, Y., Ito, A., Nixon, A., Yoshida, M., Wang, X. F., and Yao, T. P. (2002). […] Small molecules (˜2-5 μM) of interest were retested using a sample from the plate of stock solutions by fluorescence microscopy and comparison to the effects of trichostatin (300 nM to 1 μM). […]

SMILES: CCCC(=O)O [butyrate, reference compound]
- inhibition of HDAC6 (FIG. 50D, acetylated α-tubulin immunofluorescence): also inhibit HDAC6
